Laboratory results reported in publication PMC12615815, “GroEL/ES chaperonin unfolds then encapsulates a nascent protein on the ribosome” (Nature Communications, 2025).
No constants are given. Whether binding was seen depends on the method and setting. Some results given as binding are weak or reduced against the parent protein; the word gives no strength.

Legend:
[1] = target: T1, Ribosomal stalk protein L7/L12 (E. coli, UniProt P0A7K2 1-121); test: cross-linking; XL-MS: 1-2 µM RNC with 5 µM GroEL (30 min, 30 °C), 1 mM DSBU 1 h at 25 °C, ribosomal fraction pelleted, trypsin, LC-MS/MS, MeroX; both purified
T1 construct: ribosomal protein L7/L12, E. coli, as part of the ribosome; Cross-linked while part of the 70S ribosome or RNC; also called stalk complex; source: endogenous, in E. coli 70S ribosomes (bought: NEB) and in RNCs purified from E. coli

[2] = target: T1, Ribosomal stalk protein L7/L12; test: cross-linking; XL-MS: empty 70S ribosomes (complete or stripped of L7/L12) with 5 µM GroEL, 1 mM DSBU 1 h at 25 °C, ribosomal fraction pelleted, LC-MS/MS; both purified
[3] = target: T1, Ribosomal stalk protein L7/L12; test: cross-linking; XL-MS: RNC_(1-510mut) with 5 µM GroEL and 10 µM GroES, then 1 mM ATP, 1 mM BeSO4, 10 mM NaF; 1 mM DSBU 1 h at 25 °C; both purified

Measured: binding

GroEL (V381W, A384W, V387W) (from UniProt P0A6F5 2-525)
binds: all assays above
